# In all, about 580,000 compounds went through this assay and about 6,100 (1.1%) were called active. The inconclusive results got no clear call from the source; some entries with a clear call stand among them for comparison. Calls follow the shape of the dose curve; as a rule, active = well fitted inhibition curve with a large enough effect; inconclusive = small, poorly fitted or top-dose-only effect, or another doubt; inactive = no such curve, though single readings can be large or run the other way. Potencies of inconclusive entries are doubtful fits and often do not repeat.
# Amino acid sequences for entries named in this document (tags omitted).
# UniProt P18054, whole entry, looked up: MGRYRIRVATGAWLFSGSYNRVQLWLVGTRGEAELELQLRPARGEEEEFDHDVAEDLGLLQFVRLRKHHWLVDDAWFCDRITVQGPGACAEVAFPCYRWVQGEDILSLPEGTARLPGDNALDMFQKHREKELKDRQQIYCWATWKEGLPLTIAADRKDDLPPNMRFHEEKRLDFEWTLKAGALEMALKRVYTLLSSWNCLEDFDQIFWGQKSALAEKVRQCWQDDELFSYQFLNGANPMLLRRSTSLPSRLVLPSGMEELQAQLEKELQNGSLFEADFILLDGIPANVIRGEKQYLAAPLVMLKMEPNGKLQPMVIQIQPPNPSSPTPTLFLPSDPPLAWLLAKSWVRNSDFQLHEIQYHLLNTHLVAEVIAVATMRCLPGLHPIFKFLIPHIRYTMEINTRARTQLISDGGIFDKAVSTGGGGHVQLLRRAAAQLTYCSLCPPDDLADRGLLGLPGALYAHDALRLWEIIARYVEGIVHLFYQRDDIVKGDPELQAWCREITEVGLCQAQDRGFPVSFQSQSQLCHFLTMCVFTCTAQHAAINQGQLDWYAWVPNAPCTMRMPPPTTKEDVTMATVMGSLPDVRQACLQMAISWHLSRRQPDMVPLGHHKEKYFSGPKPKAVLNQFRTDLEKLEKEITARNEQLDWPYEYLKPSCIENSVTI
# Molecular target: Polyunsaturated fatty acid lipoxygenase ALOX12 (Homo sapiens) (UniProt P18054)
# Assay: Primary qHTS assay for inhibitors of human arachidonate 12S-lipoxygenase (ALOX12): Round 2
# Settings: purified 12hLO, xylenol orange hydroperoxide absorbance; activity change, negative = inhibition: at 108 µM (top of the series) unless noted
# Summary of the method: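 Hydroperoxide product was detected by ferrous iron/xylenol orange as the 573 to 405 nm absorbance ratio. Arachidonic acid at 40 uM (final) was turned over for 30 min at room temperature by 150 nM human 12hLO, pH 7.0 Hepes buffer, after 15 min compound preincubation.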
# % is scaled to controls: 0 for no effect and ±100 for the full control effect; potency is read from the fitted curve at half-maximal effect.
SMILES,Potency,"activity change, negative = inhibition"
CN(C)S(=O)(=O)c1cccc(NC(=O)COc2nc3ccccc3nc2N2CCOCC2)c1,"inconclusive: 126 µM [inhibitor, partial curve, poor fit]",
CCCCOc1ccc2c(c1)/C(=C(\C(Cl)=C(Cl)Cl)[N+](=O)[O-])N2,"inconclusive: 22.4 µM [inhibitor, full curve, poor fit]",
CC1CCCN(C(=O)c2cc3ccc4cccnc4c3[nH]2)C1 (stereo not given),"inconclusive: 56.2 µM [inhibitor, partial curve, poor fit]",
CCCCC[C@H](C)N1C[C@@H](COCc2ccccc2)Oc2cc(N3CCC[C@H]3COC)ccc2S1(=O)=O,"inconclusive: 35.5 µM [inhibitor, partial curve, poor fit]",
CCCCNC(=O)c1ccc2c(c1)N(Cc1ccc(F)cc1)C(=O)c1ccccc1S2=O (stereo not given),"inconclusive: 56.2 µM [inhibitor, partial curve, poor fit]",
Cc1cc(C)c(NC(=O)Cn2c(=O)c3cccn3c3ccccc32)c(C)c1,"inconclusive: 126 µM [inhibitor, partial curve, poor fit]",
COc1cccc(-n2ccnc2SCC(=O)Nc2c(C)cc(C)cc2C)c1,"inconclusive: 141 µM [inhibitor, partial curve, poor fit]",
O=C(Cc1ccc2c(c1)CCCC2)N1CCC(NS(=O)(=O)c2ccccc2)CC1,"inconclusive: 0.282 µM [inhibitor, full curve, poor fit]",
CCOC(=O)N1CCN(C(=O)c2ccc3c(=O)n(-c4ccccc4F)c(=S)[nH]c3c2)CC1,inactive,
O=C(/C=C/c1cccc([N+](=O)[O-])c1)Nc1cccc(NC(=O)c2ccco2)c1,inactive,
C=CCNc1nc(N)c(C(=O)c2ccc3c(c2)OCO3)s1,"inconclusive: 50.1 µM [inhibitor, partial curve, poor fit]",
CCOC(=O)c1c(-c2ccccc2)cn2ccccc12,inactive,
CCn1c(CCCOc2ccc(Cl)cc2Cl)n[nH]c1=S,"inconclusive: 44.7 µM [inhibitor, partial curve, poor fit]",
Cc1ccccc1-c1nc(C#N)c(N2CCN(c3ccccc3)CC2)o1,"inconclusive: 35.5 µM [inhibitor, partial curve, poor fit]",
O=C1CCCC2=C1C(c1ccsc1)CC(=O)N2c1ccccc1C(F)(F)F (stereo not given),"inconclusive: 39.8 µM [inhibitor, partial curve, poor fit]",
Cc1ccc(NC(=O)/C=C\C(=O)N(c2ccc(C(C)C)cc2)C(C(=O)NCc2ccco2)c2ccc(Cl)cc2)cc1 (stereo not given),,inconclusive: -41.4% [inhibitor]
CCS(=O)(=O)c1ccc(Cc2ccc(S(=O)(=O)CC)cc2)cc1,active: 8.91 µM,
COc1cc(CN2CCN(Cc3ccccc3C)CC2)cc(OC)c1O,active: 1 µM,
COCCNC(=O)C1(C)CCCN(C(=O)c2cccc(C(F)(F)F)c2)C1 (stereo not given),inactive,
CCOC(=O)C(NC(=O)c1ccc(OC)cc1)(Nc1ccc(OC)cc1)C(F)(F)F (stereo not given),inactive,
CCC1(N2CCN(S(=O)(=O)c3ccc(Cl)cc3C)CC2)CCN(C(=O)C(C)C)C1 (stereo not given),"inconclusive: 20 µM [inhibitor, full curve]",
O=c1[nH][nH]c2c1[C@H](c1ccc(Cl)cc1)O[C@H](C1CC1)C2,inactive,

SMILES,Potency,"activity change, negative = inhibition"
CN1CCN(c2ncc3nc(-c4cn(C)c5ccccc45)c(=O)n(CCc4ccccc4)c3n2)CC1,"inconclusive: 79.4 µM [inhibitor, partial curve, poor fit]",
CC(=O)N1c2ccccc2C(=O)C1N1CCN(c2ccccc2F)CC1 (stereo not given),"inconclusive: 112 µM [inhibitor, partial curve, poor fit]",
Cc1ccc(C2NC(=O)N(CC(=O)Nc3ccc(Br)cc3F)C3=C2C(=O)OC3)cc1 (stereo not given),active: 8.91 µM,
Cc1ccc(NC(=O)CSc2nc3ccc(S(=O)(=O)N4CCOCC4)cc3[nH]2)cc1Cl,inactive,
C[n+]1ccccc1C1CCCC/C1=N\NC(N)=S (stereo not given),"inconclusive: 50.1 µM [inhibitor, partial curve]",
CC(=O)NCCC(=O)Nc1ncc(S(=O)(=O)c2ccc([N+](=O)[O-])cc2)s1,"inconclusive: 56.2 µM [inhibitor, partial curve, poor fit]",
C[C@@]12CC[C@@H](C3=C(CCC3)C1)N2c1ccccc1,"inconclusive: 70.8 µM [inhibitor, partial curve, poor fit]",
CN1CCN(C(=O)c2ccc3c(=O)n(CCc4ccccc4)c(=S)[nH]c3c2)CC1,"inconclusive: 4.47 µM [inhibitor, single point]",
CC(NC(=S)NC(C)C1CC2CCC1C2)c1ccccc1 (stereo not given),inactive,
CC(C)(C)OC(=O)N1CCC(c2c(C(=O)NCc3ccccc3)cnn2-c2cccc(F)c2)CC1,inactive,
CCOc1ccc(N2C(=O)S/C(=C\c3cc(OC)c(OC)c(OC)c3)C2=O)cc1,"inconclusive: 112 µM [inhibitor, partial curve, poor fit]",
CCCN(C(=O)c1cc(S(=O)(=O)N2CCN(CC)CC2)ccc1Cl)C1CCS(=O)(=O)C1 (stereo not given),"inconclusive: 79.4 µM [inhibitor, single point]",
COc1ccc(NC(=O)Nc2cc(NC(=O)Nc3ccc(OC)cc3)c(C)nc2C)cc1,"inconclusive: 50.1 µM [inhibitor, partial curve, poor fit]",
CCOC(=O)c1c(/N=C/C2=C(O)CCCC2=O)sc2c1CCCC2,inactive,
O=C(O)c1ccccc1-c1ccc(/C=C/c2cc(C(F)(F)F)[nH]c(=O)n2)o1,"inconclusive: 2.82 µM [inhibitor, full curve, poor fit]",
COc1ccc(N2CCN(C(=O)c3cc(-c4cccs4)nc4ccccc34)CC2)cc1,"inconclusive: 89.1 µM [inhibitor, single point]",
COc1ccccc1NC(=O)Cn1c(O)c(N=NC(=O)c2ccccc2O)c2ccccc21,inactive,
CCCCCC(=O)NNC(=S)NC(=O)c1ccccc1[N+](=O)[O-],inactive,
O=C(COc1ncnc2ccc(Br)cc12)Nc1cccc(Br)c1,"inconclusive: 112 µM [inhibitor, single point]",
COc1cccc(N=C2NC(=O)/C(=C/c3cc([N+](=O)[O-])ccc3O)S2)c1,"inconclusive: 50.1 µM [inhibitor, partial curve, poor fit]",
COc1ccc2cc(C3CN(CCC(=O)NC(C)(C)C)CCO3)ccc2c1 (stereo not given),inactive,
Cc1cccc2c1c1ccc3c(c1n2C)C(=O)C=CC3=O,"inconclusive: 50.1 µM [inhibitor, single point]",

# A section from further up, as a working copy:
SMILES,Potency,"activity change, negative = inhibition"
COc1ccccc1NC(=O)Cn1c(O)c(N=NC(=O)c2ccccc2O)c2ccccc21,inactive,
CCCCCC(=O)NNC(=S)NC(=O)c1ccccc1[N+](=O)[O-],inactive,
O=C(COc1ncnc2ccc(Br)cc12)Nc1cccc(Br)c1,"inconclusive: 112 µM [inhibitor, single point]",
COc1cccc(N=C2NC(=O)/C(=C/c3cc([N+](=O)[O-])ccc3O)S2)c1,"inconclusive: 50.1 µM [inhibitor, partial curve, poor fit]",
COc1ccc2cc(C3CN(CCC(=O)NC(C)(C)C)CCO3)ccc2c1 (stereo not given),inactive,

# Following part.

SMILES,Potency,"activity change, negative = inhibition"
O=C(/C=C/c1ccc2c(c1)OCO2)c1ccc(O)cc1O,"inconclusive: 39.8 µM [inhibitor, partial curve, poor fit]",
O=[N+]([O-])c1ccc(COP(=O)(O)OCc2ccc([N+](=O)[O-])cc2)cc1,"inconclusive: 79.4 µM [inhibitor, single point]",
CCSc1nn(CC(=O)Nc2cccc(CC)c2)c(N)c1S(=O)(=O)c1ccccc1,"inconclusive: 63.1 µM [inhibitor, partial curve, poor fit]",
COCCCNC(=O)C1CCN(Cc2cc3ccccc3n2Cc2ccccc2C)CC1,inactive,
CCN1C(=NCCCOC(C)C)N[C@@H](CCc2ccccc2)[C@H](C(=O)NCCCOC(C)C)[C@H]1C,"inconclusive: 50.1 µM [inhibitor, partial curve, poor fit]",
Cn1c(=O)n(C)c2cc(/C=N/NC(=O)c3ccc(Cl)cc3)ccc21,inactive,
CCN(CC)C(=O)Oc1nnc(SC(C)C)n1-c1ccc(Cl)cc1,"inconclusive: 126 µM [inhibitor, single point]",
Cn1c2ccccc2c(=O)c2ccc(-c3ccc4c(c3)OCO4)cc21,"inconclusive: 100 µM [inhibitor, single point]",
Cc1ccc(S(=O)(=O)c2c(O)cc(C)c(NS(=O)(=O)c3ccc(Br)cc3)c2C)cc1,"inconclusive: 50.1 µM [inhibitor, partial curve, poor fit]",
O=C(CCc1ccc2c(c1)OCO2)N1Cc2ccccc2C(O)C1 (stereo not given),"inconclusive: 8.91 µM [inhibitor, full curve, poor fit]",
CCCCC1=CC2=CC(=O)C(C)(OC(=O)CC)C(=O)C2=CN1C(CO)CO (stereo not given),inactive,
Cn1cc(-c2ccccc2)cc1C(=O)O,"inconclusive: 22.4 µM [inhibitor, single point]",
COCCNC(=O)[C@@H]1CCC[C@@H](NCc2cccc3c2OCO3)CN(C)C(=O)C1,inactive,
CCN(CC)S(=O)(=O)c1ccc(C)c(NC(=S)N2CCN(C/C=C/c3ccccc3)CC2)c1,inactive,
O=C(Nc1c(NC2CCCC2)c2ccccc2oc1=O)c1ccc(Br)o1,inactive,
COc1ccc(-c2cnc3n[nH]c(-c4ccccc4C)c3n2)cn1,"inconclusive: 39.8 µM [inhibitor, full curve]",
CN(CCc1ccccn1)C(=O)c1cc(COc2ccc(F)cc2F)on1,"inconclusive: 100 µM [inhibitor, partial curve, poor fit]",
O=C(/C=C/c1ccccc1O)c1ccc(Sc2ccccc2)cc1,"inconclusive: 50.1 µM [inhibitor, partial curve, poor fit]",
Cc1nc(N2CCC(C(=O)NCC3CCCCC3)CC2)cc(C(F)(F)F)n1,inactive,
Cc1ccc(NC(=O)C2=C(c3ccccc3)NC(=S)NC2c2ccc(Br)cc2)cc1 (stereo not given),active: 31.6 µM,
Cc1cc(N2CCN(C)CC2)nc2ccc(NC(=S)NCc3cccs3)cc12,"inconclusive: 126 µM [inhibitor, single point]",

# Reference: PubChem BioAssay AID1671190 (National Center for Advancing Translational Sciences (NCATS), 2021)
